{"source": "patent US8557984B2", "about": "“Imidazo [4, 5-C] quinoline derivatives as bromodomain inhibitors” (GlaxoSmithKline LLC, priority 2009, dated 2013)", "note": "Some of these results come from one statement about several compounds together.", "data": [{"molecular_target": "T1, Bromodomain BRD2, BRD3 and BRD4", "T1 construct": "fused on or other part: six-His tag at the N-terminal", "assay": "Fluorescence Anisotropy Binding Assay", "set-up": "species or system Human", "values": [{"smiles": "COc1ccccc1Cn1c(=O)[nH]c2cnc3cc(-c4c(C)noc4C)ccc3c21", "note": "[Example 173, 7-(3,5-dimethyl-4-isoxazolyl)-1-{[2-(methyloxy)phenyl]methyl}-1,3-dihydro-2H-imidazo[4,5-c]quinolin-2-one]", "pIC50 in one or more of the BRD2, BRD3 and BRD4 assays": "≥ 6.0"}, {"smiles": "Cc1ccccc1-n1c(C(C)C)nc2cnc3cc(-c4c(C)noc4C)ccc3c21", "note": "[Example 160, 7-(3,5-dimethyl-4-isoxazolyl)-2-(1-methylethyl)-1-(2-methylphenyl)-1H-imidazo[4,5-c]quinoline]", "pIC50 in one or more of the BRD2, BRD3 and BRD4 assays": "≥ 6.0"}, {"smiles": "Cc1noc(C)c1-c1ccc2c(c1)ncc1[nH]c(=O)n(-c3ccccc3C(C)(C)C)c12", "note": "[Example 1, 1-[2-(tert-butyl)phenyl]-7-(3,5-dimethyl-4-isoxazolyl)-1,3-dihydro-2H-imidazo[4,5-c]quinolin-2-one]", "pIC50 in one or more of the BRD2, BRD3 and BRD4 assays": "≥ 6.0"}, {"smiles": "Cc1n[nH]c(C)c1-c1ccc2c(c1)ncc1nc(C3CCOCC3)n([C@H](C)c3ccc(F)cc3)c12", "note": "[Example 187, 7-(3,5-dimethyl-1H-pyrazol-4-yl)-1-[(1R)-1-(4-fluorophenyl)ethyl]-2-(tetrahydro-2H-pyran-4-yl)-1H-imidazo[4,5-c]quinoline]", "pIC50 in one or more of the BRD2, BRD3 and BRD4 assays": "≥ 6.0"}, {"smiles": "COc1cc2c(cc1-c1c(C)noc1C)ncc1nnn(Cc3ccc(OC(F)(F)F)cc3)c12", "note": "[Example 172, 7-(3,5-dimethyl-4-isoxazolyl)-8-(methyloxy)-1-({4-[(trifluoromethyl)oxy]phenyl}methyl)-1H-[1,2,3]triazolo[4,5-c]quinoline]", "pIC50 in one or more of the BRD2, BRD3 and BRD4 assays": "≥ 6.0"}]}]}
